63 compounds from PubChem BioAssay AID493014 (National Center for Advancing Translational Sciences (NCATS), 2011) can be followed below.

This is one part of the list. These are further read-outs of the screen, such as a control signal, another cell line or another target. No call is given for them. The list favours compounds with an active or inconclusive main result. Potencies come from curve fits of mixed quality, noted in brackets.

The assay in a line: qHTS Assay to Find Inhibitors of Chronic Active B-Cell Receptor Signaling. The conditions noted are these: ABC-DLBCL IkBa-CBG/CBR reporter, luminescence ratio (green luciferase fused to IkBa over red control in TMD8 lymphoma cells), 4 h. The essentials:
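Doxycycline induced both beetle luciferases in TMD8 lymphoma cells; IKK-driven degradation limits the IkappaBalpha-fused green signal, while red luminescence normalises for cell number and nonspecific effects. Compounds tested up to 46 uM, 4 hrs.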

The mark [1] stands for this setting: measured here: CBR red luminescence, cell number.
Where [2] appears, read: measured here: IkBa-CBG green luminescence.

As a reminder, the AC50 is the concentration at which the activity in the assay is half-maximal.

With `CCN1C(=O)[C@H]2[C@@H](c3ccc(C)cc3)N3C(=O)N(c4cccc(Br)c4)C(=O)[C@@]3(Cc3ccccc3)[C@H]2C1=O`, the AC50 under setting [1] is 16.4 µM [falling, single point].
`O=C(Nc1cccc(-n2cccn2)c1)C1CCCN(Cc2cc3ccccc3[nH]2)C1` (configuration not stated): the AC50 under setting [1] was 35.5 µM [falling, single point].
On the same count and under the same terms, the same measure for `COc1ccc(N(CC(=O)N/N=C/c2ccccc2F)S(=O)(=O)c2ccccc2)cc1`: 11.2 µM [falling, single point]; for `COc1ccc(NC(=O)Nc2cccc3ccccc23)cc1S(N)(=O)=O`: 2 µM [falling, full curve]; for `COC(=O)C1CCN(C(=O)/C=C/c2ccc3c(c2)OCO3)CC1`: 1.12 µM [falling, full curve].
On the same count and under the same terms, as for `Nc1cc(N)nc(SCCOc2ccccc2F)n1`, the figure is 2.31 µM [rising, partial curve, poor fit]; as for `O=C(COC(=O)Cc1ccccc1F)Nc1cc(S(=O)(=O)N2CCOCC2)ccc1N1CCCC1`, 20.6 µM [rising, partial curve, poor fit]; as for `Cc1ccc(CNC(=O)Cc2ccc(-c3ccccc3)cc2)cc1`, 2.82 µM [rising, full curve].
On the same count and under the same terms, the same measure for `Nc1cc(Cl)ccc1Oc1ccc2ccccc2c1`: 1.16 µM [rising, full curve].
Consider `CCCC(=O)OC/C(O)=C(\C#N)c1nc2ccccc2[nH]1`, for which, under setting [1], the AC50 was 7.08 µM [falling, partial curve, poor fit].
On the same count and under the same terms, as for `Cc1ccccc1NC(=O)C1(NC(=O)c2cccc(N3C(=O)CSC3c3ccccc3)c2)CCCCC1` (configuration not stated), the figure is 11.2 µM [falling, partial curve, poor fit]; as for `O=C1CC(c2ccc(OCCCCCOc3ccc(C4CC(=O)NC4=O)cc3)cc2)C(=O)N1` (configuration not stated), 11.2 µM [falling, partial curve, poor fit].
Turning to `Fc1ccccc1OCCSc1nnnn1-c1ccccc1`, under setting [1], the AC50 was 1.64 µM [rising, partial curve, poor fit].
`CCN(CC)S(=O)(=O)c1cccc(C(=O)OCC(=O)NCc2ccccc2OC)c1`: the AC50 under setting [1] is 0.058 µM [rising, full curve, poor fit].
As for `O=[N+]([O-])c1ccc(Nc2ccc3ccccc3c2)nc1`, the AC50 under setting [1] was 0.184 µM [rising, full curve].
The same measure, in the same setting: as for `CCCCOc1ccc(C(=O)NCC(=O)NCC(c2ccc(OC)cc2)N2CCOCC2)cc1` (configuration not stated), the figure is 7.31 µM [rising, partial curve]; as for `CN1CCC(N2CCN(c3cccc(C(F)(F)F)c3)CC2)CC1`, 20.6 µM [rising, single point]; as for `Cc1ccc(CCNC(=O)c2nnn(-c3cc(C)cc(C)c3)c2N)cc1`, 29.1 µM [falling, single point].
On the same count and under the same terms, the same measure for `Cc1ccccc1NC(=O)/C=C/c1ccc([N+](=O)[O-])s1`: 6.51 µM [falling, partial curve].
Same read-out and setting: as for `CCOC(=O)Cc1csc(NS(=O)(=O)c2ccc3c4c(cccc24)C(=O)N3CC)n1`, the figure is 35.5 µM [rising, single point].
Take `Cc1csc(SCC(=O)Nc2sccc2C#N)n1`: the concentration at half-maximal activity (AC50) under setting [1] was 7.08 µM [falling, partial curve].
`COc1ccc(-c2cc(C(=O)NCCc3ccc(S(N)(=O)=O)cc3)c3ccccc3n2)cc1`: the half-maximal activity concentration (AC50) under setting [1] was 7.08 µM [rising, partial curve, poor fit].
On the same count and under the same terms, as for `COC(=O)c1cc(NC(=O)CSC2=NCCS2)cc(C(=O)OC)c1`, the figure is 15.8 µM [falling, single point]; as for `CCOc1cccc(C(=O)NC(c2ccccc2)C(C)C)c1` (configuration not stated), 6.31 µM [rising, single point].
On the same count and under the same terms, the same measure for `Cc1ccc2oc(-c3ccccc3)nc2c1`: 29.1 µM [rising, single point].
In the case of `Cc1c(NC(=O)c2noc(C(C)C)c2[N+](=O)[O-])c(=O)n(-c2ccccc2)n1C`, the AC50 runs as follows: under setting [1], 25.9 µM [falling, single point]; under setting [2], 20.6 µM [rising, partial curve, poor fit].
For `CC(=O)Nc1ccc(Nc2ncnc3c2cnn3-c2cccc(C)c2)cc1`, under setting [1], the AC50 was 5.17 µM [falling, partial curve, poor fit].
Same read-out and setting: as for `CC1CN(C(=O)Nc2cccc(Cl)c2)C2(CCCCCC2)O1` (configuration not stated), the figure is 12.6 µM [rising, partial curve, poor fit]; as for `C=C(C)CN(CC)C(=O)c1ccc(OC2CCN(S(=O)(=O)N(C)C)CC2)cc1`, 12.6 µM [rising, partial curve, poor fit]; as for `COc1ccc(Nc2nc(Cl)nc(Nc3ccc(OC)cc3OC)n2)c(OC)c1`, 0.631 µM [falling, partial curve, poor fit].
The same measure, in the same setting: as for `CCC1Nc2ncnc(N3CCc4ccccc4C3)c2N(Cc2ccc(Cl)cc2)C1=O` (configuration not stated), the figure is 29.1 µM [falling, single point].
For `CCOC(=O)C1(CCOc2ccccc2)CCN(Cc2cnc(C)s2)CC1`, the concentration at half-maximal activity (AC50) under setting [1] is 5.62 µM [rising, partial curve].
The same measure, in the same setting: the same measure for `COc1ccc(CNC(=O)CN2N=C(c3ccc(Cl)cc3)CCC2=O)cc1`: 2.51 µM [falling, full curve, poor fit].
On to `N#CCN1C(=S)N=C(Nc2cccc(Cl)c2)C12CCCCC2`, for which the concentration at half-maximal activity (AC50) reads like this: under setting [1], 3.98 µM [rising, full curve, poor fit]; under setting [2], 4.47 µM [falling, partial curve, poor fit].
Turning to `COc1ccc(C(=O)Nc2nc(C)c3cc4c(cc3n2)OCO4)cc1`, under setting [1], the AC50 is 4.61 µM [falling, full curve, poor fit].
Same read-out and setting: as for `CCc1ccc2c(CC(=O)Nc3nnc(C4CC4)s3)coc2c1`, the figure is 17.8 µM [rising, single point].
Same read-out and setting: the same measure for `COc1cccc2sc(N(CCCN(C)C)C(=O)c3ccc(S(=O)(=O)N4CCc5ccccc5C4)cc3)nc12`: 35.5 µM [falling, single point]; for `Nc1c(C(=O)N/N=C/c2cccnc2)cnn1-c1ccccc1`: 2.31 µM [falling, single point].
Same read-out and setting: as for `CC(=NC1CCCC1)c1c(C)[nH]n(-c2nc3ccccc3s2)c1=O`, the figure is 0.355 µM [rising, full curve, poor fit].
As to `c1ccc(CC2CCN(C3=Nc4cccc5cccc3c45)CC2)cc1`, the AC50 under setting [1] is 2 µM [rising, full curve, poor fit].
On to `COc1cc(CNc2ccc(O)cc2)cc(Br)c1OCc1ccccc1`, for which, under setting [1], the AC50 is 1.41 µM [rising, partial curve, poor fit].
Consider `COc1ccc(-c2cc(C(=O)NN)[nH]n2)cc1OC`, for which the concentration at half-maximal activity (AC50) by setting is: under setting [1], 14.1 µM [rising, single point]; under setting [2], 17.8 µM [falling, partial curve].
For `Cc1cc(C)cc(OCC(=O)O/N=C(\N)c2ccccc2Cl)c1`, the AC50 under setting [1] was 1.12 µM [rising, full curve, poor fit].
On the same count and under the same terms, as for `CCCCCC(=O)N/N=C(\C)c1ccc(N2CCCCC2)cc1`, the figure is 4.11 µM [rising, single point].
Same read-out and setting: as for `Cc1ccc(C)c(NC(=O)c2ccccc2NS(=O)(=O)c2cc([N+](=O)[O-])ccc2C)c1`, the figure is 4.11 µM [falling, full curve]; as for `CCCCOC(=O)c1ccc(NC(=O)c2ocnc2C)cc1`, 5.62 µM [rising, full curve].
The same measure, in the same setting: the same measure for `COc1ccc(NC(=O)CN(C)CC(=O)Nc2cccc(S(=O)(=O)N(C)c3ccccc3)c2)cc1`: 35.5 µM [falling, single point]; for `COC(=O)c1ccc(-n2nnnc2SCC(=O)Nc2ccccc2OC)cc1`: 20 µM [falling, partial curve]; for `Cc1ccc(OCc2ccc(C(=O)NN)o2)cc1C`: 7.08 µM [falling, partial curve].
Turning to `CCCCCc1nc2c(=O)[nH]c3ccccc3c2o1`, under setting [1], the AC50 is 0.251 µM [rising, full curve, poor fit].
With `COc1cc(OC)cc(C(=O)N[C@H](C(=O)Nc2nc(-c3ccc(OC)c(OC)c3)cs2)C(C)C)c1`, the AC50 under setting [2] is 0.708 µM [falling, partial curve, poor fit].
As to `CCN1CCCC1CNC(=O)C(=O)Nc1ccccc1` (configuration not stated), the half-maximal activity concentration (AC50) under setting [1] is 8.91 µM [falling, partial curve, poor fit].
The same measure, in the same setting: the same measure for `O=C(CSc1nnc(-c2ccncc2)n1-c1ccc(Cl)cc1)N1CCOCC1`: 16.4 µM [rising, partial curve].
Still for that read-out and setting: the same measure for `COc1cccc(NC(=O)C(=O)NCc2ccncc2)c1`: 8.91 µM [falling, partial curve]; for `COc1ccc(-c2cn3ccsc3n2)cc1`: 0.2 µM [rising, full curve, poor fit]; for `COc1cc(NC(=O)Cn2nc(-c3ccc(F)cc3)ccc2=O)ccc1-n1cnnn1`: 35.5 µM [rising, single point].
The same measure, in the same setting: the same measure for `COC(=O)c1nnc(-c2ccccc2)nc1OC`: 20.6 µM [falling, single point]; for `CCOC(=O)c1sc(NC(=O)c2sc(C)nc2C)nc1C`: 0.398 µM [falling, full curve].
As for `O=C(Nc1ccc(OC(F)F)c(Cl)c1)C(c1ccccc1)c1ccccc1`, the AC50 under setting [1] is 16.4 µM [falling, single point] and the AC50 under setting [2] was 16.4 µM [rising, single point].
For the compound `COc1cc(/C=C2/C(=O)NN(c3ccccc3)C2=O)cc(Br)c1O`, the concentration at half-maximal activity (AC50) under setting [1] is 22.4 µM [falling, single point].
The same measure, in the same setting: as for `CSc1ccccc1OCc1cc(C(=O)N(C)CCc2c(C)n[nH]c2C)no1`, the figure is 0.1 µM [falling, full curve, poor fit].
Still for that read-out and setting: the same measure for `NC(=O)c1ccc2nc(-c3ccccc3)c(-c3ccccc3)nc2c1`: 15.8 µM [falling, single point].
Regarding `COc1ccccc1-c1cn[nH]c1-c1ccc(OCc2ccc(F)cc2)cc1O`, the concentration at half-maximal activity (AC50) under setting [2] is 35.5 µM [rising, partial curve, poor fit].
